Literature values, collected in patent US20240398797A1, “COMBINATION THERAPIES FOR METASTATIC CASTRATION-RESISTANT PROSTATE CANCER” (Janssen Pharmaceutica NV, priority 2021, published 2024).
For at least one compound, name, drawing or mass did not settle the structure.

System: W741L/W741C AR mutants

## CC(O)(CS(=O)(=O)c1ccc(F)cc1)C(=O)Nc1ccc(C#N)c(C(F)(F)F)c1 (stereo not shown) [bicalutamide]
  activity at AR mutant: act as AR agonists
